Measured values reported in publication PMC6428263.
No constants are given. Whether binding was seen depends on the method and setting. Binding seen in cells or lysates may run through a third protein. These calls come from enrichment with a bait or labelling near it, and not all partners need be listed.

Protein sequences, listed by entry. Tags and fused reporters are not part of them.
UniProt Q96QZ7: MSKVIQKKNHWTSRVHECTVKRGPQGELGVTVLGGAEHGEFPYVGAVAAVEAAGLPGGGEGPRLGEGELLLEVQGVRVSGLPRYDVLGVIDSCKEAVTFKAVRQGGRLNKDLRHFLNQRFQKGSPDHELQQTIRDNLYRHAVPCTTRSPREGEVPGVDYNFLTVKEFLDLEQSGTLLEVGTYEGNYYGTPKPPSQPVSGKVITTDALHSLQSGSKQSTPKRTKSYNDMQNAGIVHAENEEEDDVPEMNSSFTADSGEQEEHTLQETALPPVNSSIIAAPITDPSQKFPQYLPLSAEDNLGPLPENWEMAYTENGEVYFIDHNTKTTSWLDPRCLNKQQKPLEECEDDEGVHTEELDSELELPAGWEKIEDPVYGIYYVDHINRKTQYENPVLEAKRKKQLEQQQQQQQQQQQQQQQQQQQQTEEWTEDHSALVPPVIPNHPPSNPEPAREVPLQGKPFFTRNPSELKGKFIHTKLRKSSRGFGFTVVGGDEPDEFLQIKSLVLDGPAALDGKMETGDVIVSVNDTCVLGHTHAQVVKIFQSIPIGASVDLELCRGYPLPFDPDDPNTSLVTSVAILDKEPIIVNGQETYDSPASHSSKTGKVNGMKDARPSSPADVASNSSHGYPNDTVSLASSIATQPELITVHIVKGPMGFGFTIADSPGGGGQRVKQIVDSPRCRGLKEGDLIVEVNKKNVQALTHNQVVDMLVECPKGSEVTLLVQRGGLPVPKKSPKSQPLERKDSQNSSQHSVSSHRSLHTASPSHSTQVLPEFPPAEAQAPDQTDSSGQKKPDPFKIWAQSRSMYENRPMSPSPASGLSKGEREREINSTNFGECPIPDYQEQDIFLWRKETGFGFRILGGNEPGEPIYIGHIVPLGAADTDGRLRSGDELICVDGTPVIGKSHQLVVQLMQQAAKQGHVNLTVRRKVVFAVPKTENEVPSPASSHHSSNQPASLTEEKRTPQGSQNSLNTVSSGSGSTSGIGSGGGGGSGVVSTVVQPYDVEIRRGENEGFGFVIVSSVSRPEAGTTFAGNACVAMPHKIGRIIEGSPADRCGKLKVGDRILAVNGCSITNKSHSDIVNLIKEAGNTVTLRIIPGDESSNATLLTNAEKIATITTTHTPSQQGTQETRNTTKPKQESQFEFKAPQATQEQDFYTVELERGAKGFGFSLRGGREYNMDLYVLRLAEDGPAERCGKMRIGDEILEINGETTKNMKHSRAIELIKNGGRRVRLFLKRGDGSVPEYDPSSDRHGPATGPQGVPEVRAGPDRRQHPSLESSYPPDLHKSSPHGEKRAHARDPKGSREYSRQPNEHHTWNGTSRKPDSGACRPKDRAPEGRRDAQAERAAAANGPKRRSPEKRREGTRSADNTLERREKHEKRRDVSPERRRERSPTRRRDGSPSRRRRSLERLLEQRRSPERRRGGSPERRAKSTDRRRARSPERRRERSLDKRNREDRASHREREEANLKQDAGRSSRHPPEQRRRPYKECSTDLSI
UniProt Q14160: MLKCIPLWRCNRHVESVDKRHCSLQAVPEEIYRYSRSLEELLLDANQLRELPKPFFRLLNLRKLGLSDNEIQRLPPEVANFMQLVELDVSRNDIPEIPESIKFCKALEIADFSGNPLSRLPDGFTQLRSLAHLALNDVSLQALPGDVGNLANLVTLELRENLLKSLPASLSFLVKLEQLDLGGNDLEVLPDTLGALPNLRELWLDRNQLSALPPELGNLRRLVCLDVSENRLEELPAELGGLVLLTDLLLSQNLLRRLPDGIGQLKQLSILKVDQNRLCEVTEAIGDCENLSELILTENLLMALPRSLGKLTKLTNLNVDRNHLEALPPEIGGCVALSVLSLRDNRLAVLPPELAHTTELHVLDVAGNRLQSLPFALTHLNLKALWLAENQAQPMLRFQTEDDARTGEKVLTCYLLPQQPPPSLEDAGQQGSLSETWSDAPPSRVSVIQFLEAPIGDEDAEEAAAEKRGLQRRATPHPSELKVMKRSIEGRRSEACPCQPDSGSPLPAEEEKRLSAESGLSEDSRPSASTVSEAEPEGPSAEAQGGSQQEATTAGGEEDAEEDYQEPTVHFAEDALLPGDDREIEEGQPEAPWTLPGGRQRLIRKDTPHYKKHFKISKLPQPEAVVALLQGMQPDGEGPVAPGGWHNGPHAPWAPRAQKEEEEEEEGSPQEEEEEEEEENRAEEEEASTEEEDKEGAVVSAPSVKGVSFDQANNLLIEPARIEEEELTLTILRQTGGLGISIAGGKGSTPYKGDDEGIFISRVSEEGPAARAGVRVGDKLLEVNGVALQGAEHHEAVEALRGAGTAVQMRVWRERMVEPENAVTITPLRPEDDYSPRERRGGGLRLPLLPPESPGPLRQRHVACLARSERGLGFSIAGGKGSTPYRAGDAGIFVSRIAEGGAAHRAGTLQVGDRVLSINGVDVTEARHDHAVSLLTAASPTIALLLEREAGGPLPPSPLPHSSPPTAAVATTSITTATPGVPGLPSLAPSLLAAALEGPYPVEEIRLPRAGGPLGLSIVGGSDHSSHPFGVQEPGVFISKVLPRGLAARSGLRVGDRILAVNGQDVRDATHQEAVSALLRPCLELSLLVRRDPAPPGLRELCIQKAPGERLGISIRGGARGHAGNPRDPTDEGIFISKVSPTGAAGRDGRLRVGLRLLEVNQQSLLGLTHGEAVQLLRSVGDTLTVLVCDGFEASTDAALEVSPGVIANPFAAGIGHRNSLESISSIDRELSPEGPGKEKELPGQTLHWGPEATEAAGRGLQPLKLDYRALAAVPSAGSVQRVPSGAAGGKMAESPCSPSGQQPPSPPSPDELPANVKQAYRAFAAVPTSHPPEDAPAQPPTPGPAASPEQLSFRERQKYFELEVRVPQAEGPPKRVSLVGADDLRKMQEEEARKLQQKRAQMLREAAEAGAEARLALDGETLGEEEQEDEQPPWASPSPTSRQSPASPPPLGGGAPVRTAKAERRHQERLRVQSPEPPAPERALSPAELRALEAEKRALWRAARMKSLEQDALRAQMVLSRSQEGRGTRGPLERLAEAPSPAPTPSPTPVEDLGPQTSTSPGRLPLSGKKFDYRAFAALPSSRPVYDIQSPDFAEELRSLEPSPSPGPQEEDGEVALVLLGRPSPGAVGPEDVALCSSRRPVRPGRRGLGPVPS
UniProt Q13425: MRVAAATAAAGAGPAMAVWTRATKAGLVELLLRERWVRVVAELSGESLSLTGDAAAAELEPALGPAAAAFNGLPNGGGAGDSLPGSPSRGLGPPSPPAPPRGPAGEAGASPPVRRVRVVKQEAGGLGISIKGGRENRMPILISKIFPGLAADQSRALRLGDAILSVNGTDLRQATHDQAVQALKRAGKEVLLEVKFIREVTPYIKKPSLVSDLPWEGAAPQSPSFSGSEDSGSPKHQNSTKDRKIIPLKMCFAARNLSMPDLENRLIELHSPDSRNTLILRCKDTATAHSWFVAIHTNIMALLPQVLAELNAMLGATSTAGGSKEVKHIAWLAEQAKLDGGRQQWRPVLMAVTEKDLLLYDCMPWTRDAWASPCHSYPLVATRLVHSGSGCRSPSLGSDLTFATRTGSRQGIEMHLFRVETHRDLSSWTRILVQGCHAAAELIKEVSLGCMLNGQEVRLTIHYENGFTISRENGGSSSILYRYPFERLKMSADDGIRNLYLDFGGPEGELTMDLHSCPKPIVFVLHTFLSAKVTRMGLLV

Target: S-tag Tax-1 (HTLV-1) (UniProt P03409)
Assay: affinity purification with mass spectrometry; S-tag pull-down on S-agarose overnight from lysates (passive lysis buffer) of HEK293T cells transfected with S-tag constructs; beads washed four times with RIPA lysis buffer; whole gel lanes analysed by capillary LC-MS/MS

Row | Molecule | binding
1 | MAGI1 (from UniProt Q96QZ7 1-1491) | binds
2 | Scribble (from UniProt Q14160 1-1655) | binds
3 | Beta-2-syntrophin (from UniProt Q13425 1-540) | binds
4 | alternative NF-κB precursor protein p100 (protein, UniProt Q00653-1 1-900) MESCYNPGLDGIIEYDDFKLNSSIVEPKEPAPETADGPYLVIVEQPKQRGFRFRYGCEGPSHGGLPGASSEKGRKTYPTVKICNYEGPAKIEVDLVTHSDPPRAHAHSLVGKQCSELGICAVSVGPKDMTAQFNNLGVLHVTKKNMMGTMIQKLQRQRLRSRPQGLTEAEQRELEQEAKELKKVMDLSIVRLRFSAFLRASDGSFSLPLKPVISQPIHDSKSPGASNLKISRMDKTAGSVRGGDEVYLLCDKVQKDDIEVRFYEDDENGWQAFGDFSPTDVHKQYAIVFRTPPYHKMKIERPVTVFLQLKRKRGGDVSDSKQFTYYPLVEDKEEVQRKRRKALPTFSQPFGGGSHMGGGSGGAAGGYGGAGGGGSLGFFPSSLAYSPYQSGAGPMGCYPGGGGGAQMAATVPSRDSGEEAAEPSAPSRTPQCEPQAPEMLQRAREYNARLFGLAQRSARALLDYGVTADARALLAGQRHLLTAQDENGDTPLHLAIIHGQTSVIEQIVYVIHHAQDLGVVNLTNHLHQTPLHLAVITGQTSVVSFLLRVGADPALLDRHGDSAMHLALRAGAGAPELLRALLQSGAPAVPQLLHMPDFEGLYPVHLAVRARSPECLDLLVDSGAEVEATERQGGRTALHLATEMEELGLVTHLVTKLRANVNARTFAGNTPLHLAAGLGYPTLTRLLLKAGADIHAENEEPLCPLPSPPTSDSDSDSEGPEKDTRSSFRGHTPLDLTCSTKVKTLLLNAAQNTMEPPLTPPSPAGPGLSLGDTALQNLEQLLDGPEAQGSWAELAERLGLRSLVDTYRQTTSPSGSLLRSYELAGGDLAGLLEALSDMGLEEGVRLLRGPETRDKLPSTAEVKEDSAYGSQSVEQEAEKLGPPPEPPGGLCHGHPQPQVH | binds
5 | Beta-1-syntrophin (protein, UniProt Q13884 1-538) MAVAAAAAAAGPAGAGGGRAQRSGLLEVLVRDRWHKVLVNLSEDALVLSSEEGAAAYNGIGTATNGSFCRGAGAGHPGAGGAQPPDSPAGVRTAFTDLPEQVPESISNQKRGVKVLKQELGGLGISIKGGKENKMPILISKIFKGLAADQTQALYVGDAILSVNGADLRDATHDEAVQALKRAGKEVLLEVKYMREATPYVKKGSPVSEIGWETPPPESPRLGGSTSDPPSSQSFSFHRDRKSIPLKMCYVTRSMALADPENRQLEIHSPDAKHTVILRSKDSATAQAWFSAIHSNVNDLLTRVIAEVREQLGKTGIAGSREIRHLGWLAEKVPGESKKQWKPALVVLTEKDLLIYDSMPRRKEAWFSPVHTYPLLATRLVHSGPGKGSPQAGVDLSFATRTGTRQGIETHLFRAETSRDLSHWTRSIVQGCHNSAELIAEISTACTYKNQECRLTIHYENGFSITTEPQEGAFPKTIIQSPYEKLKMSSDDGIRMLYLDFGGKDGEIQLDLHSCPKPIVFIIHSFLSAKITRLGLVA | binds
6 | Lin-7 homolog C (protein, UniProt Q9NUP9 1-197) MAALGEPVRLERDICRAIELLEKLQRSGEVPPQKLQALQRVLQSEFCNAVREVYEHVYETVDISSSPEVRANATAKATVAAFAASEGHSHPRVVELPKTEEGLGFNIMGGKEQNSPIYISRIIPGGIADRHGGLKRGDQLLSVNGVSVEGEHHEKAVELLKAAQGKVKLVVRYTPKVLEEMESRFEKMRSAKRRQQT | binds
